In article PMC5036054:
No constants are given. Whether binding was seen depends on the method and setting. Binding seen in cells or lysates may run through a third protein. Some results given as binding are weak or reduced against the parent protein; the word gives no strength.

The chains behind the UniProt entries cited, without tags or fusion partners. Residues count along the entry.
UniProt P09055, residues 21-798: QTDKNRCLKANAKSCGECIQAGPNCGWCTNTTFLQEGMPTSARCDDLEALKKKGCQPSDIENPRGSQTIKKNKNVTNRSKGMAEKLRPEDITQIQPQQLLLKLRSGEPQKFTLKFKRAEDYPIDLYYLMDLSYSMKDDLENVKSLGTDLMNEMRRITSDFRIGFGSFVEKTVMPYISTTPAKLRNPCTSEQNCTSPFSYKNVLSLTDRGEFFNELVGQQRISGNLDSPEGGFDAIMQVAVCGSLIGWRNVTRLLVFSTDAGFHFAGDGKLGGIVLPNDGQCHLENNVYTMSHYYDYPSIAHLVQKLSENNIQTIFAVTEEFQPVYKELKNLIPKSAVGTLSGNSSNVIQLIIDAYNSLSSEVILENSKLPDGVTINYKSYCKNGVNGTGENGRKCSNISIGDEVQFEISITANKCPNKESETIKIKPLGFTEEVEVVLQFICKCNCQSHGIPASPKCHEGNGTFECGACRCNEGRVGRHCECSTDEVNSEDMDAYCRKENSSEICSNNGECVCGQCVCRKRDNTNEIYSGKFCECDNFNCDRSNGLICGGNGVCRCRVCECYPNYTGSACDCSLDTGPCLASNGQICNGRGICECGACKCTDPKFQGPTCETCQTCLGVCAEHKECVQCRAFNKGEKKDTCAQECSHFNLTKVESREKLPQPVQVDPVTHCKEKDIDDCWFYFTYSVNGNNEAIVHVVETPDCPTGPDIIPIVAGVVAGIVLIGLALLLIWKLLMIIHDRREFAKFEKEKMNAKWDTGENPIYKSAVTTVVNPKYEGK

Target: β1 integrin subunit (mouse (endogenous in C57BL/6 sperm)) (UniProt P09055)
Experiment: proximity ligation; Duolink in situ PLA on formaldehyde-fixed smears of C57BL/6 mouse sperm, freshly released and after calcium ionophore-induced acrosome reaction; two primary antibodies from different species, read by fluorescence microscopy

B1: CD46 (membrane cofactor protein, MCP) (protein, UniProt O88174 45-365)
chain: CELPRPFEAMELKGTPKLFYAVGEKIEYKCKKGYLYLSPYLMIATCEPNHTWVPISDAGCIKVQCTMLQDPSFGKVYYIDGSFSWGARAKFTCMEGYYVVGMSVLHCVLKGDDEAYWNGYPPHCEKIYCLPPPKIKNGTHTLTDINVFKYHEAVSYSCDPTPGPDKFSLVGTSMIFCAGHNTWSNSPPECKVVKCPNPVLQNGRLISGAGEIFSYQSTVMFECLQGFYMEGSSMVICSANNSWEPSIPKCLKGPRPTHPTKPPVYNYTGYPSPREGIFSQELDAWIIALIVITSIVGVFILCLIVLRCFEHRKKTNVSAAR
With B1 the binding was “binds”.
